Values quoted from earlier work, collected in patent publication US20030176456A1, “Methods for reducing alcohol cravings in chronic alcoholics” (priority 2001, published 2003).
For at least one compound, name, drawing or mass did not settle the structure.

How the values were obtained:
[1] = test system: alcohol-preferring (P) rats; details: parenteral and oral administration (June et al., 1998b); cited from earlier work
[2] = June et al., 1998e; cited from earlier work

For `O=C1C2C=Nc3ccccc3C2=NN1c1ccccc1` (centres unmarked) [CGS 8216], the alcohol-maintained responding [1] is listed as “can selectively reduce alcohol-maintained responding” and the “blocking the sedative actions of alcohol” value [2] is listed as “capable of blocking”.
